Results taken from PubChem BioAssay AID493014 (National Center for Advancing Translational Sciences (NCATS), 2011).
Some of the results follow. These are further read-outs of the screen, such as a control signal, another cell line or another target. No call is given for them. Compounds called inactive in the main read-out are mostly missing here. Words in brackets tell the shape of the fitted curve; partial curves, single points and poor fits give uncertain potencies.

Test: qHTS Assay to Find Inhibitors of Chronic Active B-Cell Receptor Signaling
Settings: ABC-DLBCL IkBa-CBG/CBR reporter, luminescence ratio (green luciferase fused to IkBa over red control in TMD8 lymphoma cells), 4 h
In short: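 Compounds up to 46 uM were incubated four hours with TMD8 cells whose green CBG68 luciferase is fused to IkappaBalpha; red CBR luminescence normalised the signal, and concentration-effect curves were fitted to fusion, red and ratio data.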

[1] = measured here: CBR red luminescence, cell number
[2] = measured here: IkBa-CBG green luminescence

CCCC1OC2CC3C4CCC5=CC(=O)C=CC5(C)C4C(O)CC3(C)C2(C(=O)O)O1 (stereo not given)
AC50 [1]: 0.891 µM [rising, full curve, poor fit]

COc1ccc(-c2nn(-c3ccccc3)cc2C#N)cc1
AC50 [1]: 1.03 µM [rising, full curve, poor fit]

Cc1cc(C)cc(Nc2ccc(C(=O)O)cc2N)c1
AC50 [1]: 0.517 µM [falling, full curve]

CC(C)(C)C(=O)Nc1c(Br)c(C2CC2)nn1-c1ccccc1
AC50 [1]: 2.82 µM [rising, partial curve, poor fit]

CCC(C)(C)C(=O)Nc1ncc(S(=O)(=O)c2ccc([N+](=O)[O-])cc2)s1
AC50 [1]: 12.6 µM [falling, single point]

CCc1ccc(CN(C)C(=O)c2cc(COc3cc(C)c(Cl)c(C)c3)on2)nc1
AC50 [1]: 35.5 µM [falling, single point]

CCN(C(=O)c1cnc(N2CCN(c3ncccn3)CC2)c2ccccc12)c1cccc(Cl)c1
AC50 [1]: 10 µM [falling, partial curve]

CC(C)Oc1ccccc1/C=N/NC(=O)C1CCCC1
AC50 [1]: 1.41 µM [rising, full curve, poor fit]

CCOCC(=O)Nc1ccc(S(=O)(=O)N2CCC(c3nc4ccccc4[nH]3)CC2)cc1
AC50 [1]: 9.2 µM [rising, partial curve, poor fit]

Oc1oc(-c2ccco2)nc1C=Nc1cccc(Cl)c1
AC50 [1]: 10 µM [falling, partial curve]

CCOC(=O)c1cnn(CC2CCCCC2)c1N
AC50 [1]: 35.5 µM [rising, partial curve, poor fit]

O=c1c(N2CCN(c3cccc(C(F)(F)F)c3)CC2)csc2ccccc12
AC50 [1]: 35.5 µM [falling, single point]

Cc1noc(C)c1COc1ccc(C(=O)NCc2ccccn2)cc1
AC50 [1]: 0.082 µM [falling, full curve, poor fit]

CSC1=NNC(c2ccc(C(C)(C)C)cc2)=NN1
AC50 [1]: 1 µM [rising, full curve]

CCCCCCCOC(=O)c1ccc(OC(=O)c2cccnc2)cc1
AC50 [1]: 0.366 µM [rising, full curve]

O=C(c1ccccc1-c1nc(-c2ccc(F)cc2)no1)N1CCCC1
AC50 [1]: 22.4 µM [rising, partial curve]

COc1ccc(O)c(/C=N/NC(=O)CCC(=O)Nc2ccc(F)cc2)c1
AC50 [1]: 7.94 µM [falling, partial curve]

CCC1CCC(c2nnc(-c3ccc([N+](=O)[O-])cc3)o2)CC1 (stereo not given)
AC50 [1]: 16.4 µM [rising, single point]

C=CCC[C@H](Cc1ccc(F)cc1)C(=O)OC[C@H](Cc1c[nH]c2ccccc12)NC(=O)[C@H](CC=C)CC(=O)N(CCO)Cc1ccccc1
AC50 [1]: 20.6 µM [falling, partial curve, poor fit]

CCOC(=O)C1(Cc2ccc(OC)cc2)CCN(C(=O)C2=CCCC2)CC1
AC50 [1]: 35.5 µM [rising, single point]

COc1ccc(Cl)cc1NC(=O)c1cc(-c2ccc(C)cc2O)n[nH]1
AC50 [1]: 15.8 µM [falling, single point]

Cc1ccnc2nc(C(=O)Nc3ccc4c(c3)OCO4)nn12
AC50 [1]: 0.00461 µM [falling, full curve, poor fit]

COc1ccccc1NC(=O)C(C)OC(=O)CCNS(=O)(=O)c1ccc(C)c(C)c1 (stereo not given)
AC50 [1]: 29.1 µM [rising, single point]

COc1ccc(NC(=O)c2cccc(NC(=O)c3ccccc3)c2)cc1
AC50 [1]: 15.8 µM [falling, single point]

Cc1ccc(NNC(=O)Nc2ccc(Cl)cc2)nn1
AC50 [1]: 11.2 µM [rising, partial curve]

O=C(Nc1cccc(Cl)c1)N1CCN2C(=O)c3ccccc3C12c1ccccc1 (stereo not given)
AC50 [1]: 5.01 µM [falling, partial curve]
AC50 [2]: 12.6 µM [rising, partial curve, poor fit]

CCOC(=O)Cc1csc(NC(=O)c2ccc(Br)cc2)n1
AC50 [1]: 17.8 µM [falling, single point]

CCC(C(=O)NCCN1CCN(C)CC1)n1c(C)c2cnn(-c3ccccc3)c(=O)c2c1C (stereo not given)
AC50 [1]: 5.01 µM [rising, partial curve, poor fit]

O=C(N/N=C/c1ccc(O)c(O)c1)c1ccc(CSc2cccc3cccnc23)cc1
AC50 [1]: 7.31 µM [falling, partial curve, poor fit]

O=C(N/N=C/c1cc2c(cc1Br)OCO2)c1c[nH]c2ccccc12
AC50 [1]: 0.112 µM [rising, full curve, poor fit]

c1ccc2sc(NN=C3CCCC3)nc2c1
AC50 [1]: 11.2 µM [falling, partial curve, poor fit]

COc1ccc(N=Nc2ccc(N)nc2N)cc1
AC50 [1]: 0.891 µM [rising, full curve, poor fit]

O=C(Nc1ccc(Cl)cc1)OCc1cncs1
AC50 [1]: 3.98 µM [rising, partial curve, poor fit]

COc1ccccc1OCc1ccc(C(=O)N2CCOCC2)o1
AC50 [1]: 6.51 µM [rising, partial curve, poor fit]

CCSc1nnc(NC(=O)c2cccc(S(=O)(=O)N(C)c3ccc(C)cc3)c2)s1
AC50 [1]: 8.2 µM [rising, partial curve, poor fit]

COc1ccc(-c2coc3cc(OC4OC(CO)C(O)C(O)C4O)cc(O)c3c2=O)cc1 (stereo not given)
AC50 [1]: 13 µM [rising, partial curve]

FC(F)(F)c1cccc(-n2cc(-c3ccccc3)[nH]c2=S)c1
AC50 [1]: 0.355 µM [rising, full curve, poor fit]

C/C(=N\Nc1ncnc2sc(C)c(C)c12)c1ccccn1
AC50 [2]: 15.8 µM [falling, partial curve, poor fit]

Cc1noc(/C=C/N(C)C)c1S(=O)(=O)N1CCN(c2ccccc2)CC1
AC50 [1]: 3.55 µM [rising, full curve, poor fit]

Nc1nc(Cl)cc(N2CCC(c3cc(-c4ccc(Cl)cc4)n[nH]3)CC2)n1
AC50 [1]: 35.5 µM [falling, single point]

CCCOC(=O)c1ccc(NC(=O)CC(C)(C)C)cc1
AC50 [1]: 12.6 µM [falling, partial curve]

CCCCCC[n+]1c(-c2ccccc2)csc1Nc1ccccc1
AC50 [1]: 18.4 µM [rising, single point]

CCSc1nnc(-c2ccc(OC)cc2)o1
AC50 [1]: 2.06 µM [rising, partial curve]

Cc1c(C(=O)c2ccccc2)c2ccccn2c1CCC#N
AC50 [1]: 1 µM [rising, partial curve, poor fit]

Cc1cc2n(n1)C(c1ccccc1)CC(c1ccc(Br)cc1)=N2 (stereo not given)
AC50 [1]: 4.61 µM [falling, single point]

CCCCn1c(=O)n(CC(=O)Nc2ccc(C)c(Cl)c2)c(=O)c2c1ncn2Cc1ccco1
AC50 [1]: 29.1 µM [falling, single point]

CCOC(=O)c1ccc([N+](=O)[O-])c(CS(=O)(=O)c2ccc(Cl)cc2)c1
AC50 [1]: 0.631 µM [rising, full curve, poor fit]

COc1ccc(-c2csc(NC(=O)c3ccccc3NS(=O)(=O)c3ccc(F)c(F)c3)n2)cc1
AC50 [1]: 5.62 µM [falling, single point]

O=C(Nc1ccc(F)cc1)N1CCN(c2ccc3nnc(-c4ccc(F)cc4)n3n2)CC1
AC50 [1]: 7.31 µM [rising, single point]

CN(CC(=O)Nc1ccc(F)c(F)c1F)c1cnccn1
AC50 [1]: 35.5 µM [falling, single point]

O=C(NC1CCCCCC1)c1ccc(-n2cnnc2)cc1
AC50 [1]: 7.08 µM [falling, partial curve, poor fit]

N#Cc1nc(COc2ccccc2)oc1N1CCOCC1
AC50 [1]: 0.651 µM [rising, partial curve, poor fit]

COc1ccccc1N1CCN(C(=O)c2c(-c3c(Cl)cccc3Cl)noc2C)CC1
AC50 [1]: 4.61 µM [rising, partial curve, poor fit]

Cc1ccnc(NS(=O)(=O)c2ccc(NC(=O)C3CCCNC3=O)cc2)n1 (stereo not given)
AC50 [1]: 7.94 µM [rising, partial curve, poor fit]

Cc1ccc(-c2nc(SCC(=O)Nc3ccccc3OC(F)F)c3c(C)c(C(=O)O)sc3n2)cc1
AC50 [1]: 1.78 µM [falling, full curve, poor fit]

CC(=O)Nc1cc(C)c2nc(NC(C)=O)sc2c1
AC50 [1]: 3.55 µM [falling, partial curve, poor fit]

O=C(Nc1cccc(O)c1)c1cc(-c2ccc3c(c2)OCO3)on1
AC50 [1]: 2.51 µM [falling, partial curve]

Clc1ccc(-c2nnc3n2CCCCC3)cc1
AC50 [1]: 2.31 µM [rising, partial curve, poor fit]

Cc1cccnc1NC(=O)c1ccc(S(=O)(=O)N2CCCCC2)cc1
AC50 [1]: 16.4 µM [falling, single point]

COc1ccc(Cc2nnc(SCC(=O)NC3CCCC3)o2)cc1
AC50 [1]: 8.2 µM [rising, partial curve]
AC50 [2]: 29.1 µM [falling, single point]

CCN1CCN(Cc2ccc(NC(=O)c3ccc(C)c(NC(=O)c4csc(-c5ccncc5)n4)c3)cc2C(F)(F)F)CC1
AC50 [1]: 35.5 µM [falling, single point]

COc1ccc(-c2cn(-c3ccccc3)nc2CO)cc1
AC50 [1]: 0.282 µM [rising, full curve, poor fit]

CC(=O)c1cccc(NC(=O)CSc2nnc3ccc(-c4ccc(F)cc4)nn23)c1
AC50 [1]: 7.08 µM [rising, partial curve, poor fit]
